Source: patent publication USRE44971E1, “Method for selection of transformed cells” (priority 2006, dated 2014)
Where two headings read alike, the source gives them in different places.

Tested on: Dicamba-selected soybean shoots

In the case of `COc1c(Cl)ccc(Cl)c1C(=O)O` [dicamba, 3,6-dichloro-o-anisic acid], the escape rate (rooting in Oasis plugs in liquid medium with 0.01 mg/l dicamba) is reported as “about 33%” and the escape rate (roots induced in the semi-solid medium) is reported as 53%.
